Results from PMC5431615.

Legend:
[1] = target: SH2 domain of Nck2 in the KRas-PDGFR biosensor; experiment: FRET or BRET; intramolecular FRET (ECFP/FRET emission ratio imaging) of Lyn- or KRas-tagged biosensor in live MEFs at 37 C, before and after PDGF stimulation; both partners on one chain
[2] = target: SH2 domain of Nck2 with R45V in the KRas-PDGFR biosensor; experiment: as above
[3] = target: SH2 domain of Nck2 in the purified PDGFR biosensor; experiment: FRET or BRET; intramolecular FRET (ECFP to YPet) of the purified biosensor, both partners on one chain; emission ratio 478 nm/526 nm, excitation 430 nm, before and after 1 mM ATP and 1 ug/ml PDGF receptor (or EGFR, Src, Fyn, Yes, Abl) in 50 mM Tris-HCl, 100 mM NaCl, 10 mM MgCl2, 2 mM DTT, pH 8; binding lowers FRET; both purified
[4] = target: SH2 domain of Nck2 with R45V in the purified PDGFR biosensor; experiment: as above
[5] = target: SH2 domain of Nck2 in the Lyn-PDGFR biosensor; experiment: FRET or BRET; intramolecular FRET (ECFP/FRET emission ratio imaging) of Lyn- or KRas-tagged biosensor in live MEFs at 37 C, before and after PDGF stimulation; both partners on one chain
[6] = target: SH2 domain of Nck2 with R45V in the Lyn-PDGFR biosensor; experiment: as above

binding [1]	binding [3]	binding [5]	Binder	also measured
no binding			DESVDFVPMLDM [PDGFR substrate peptide with Y751F in the KRas-PDGFR biosensor]	
binds			DESVDYVPMLDM (phosphotyrosine at Tyr751 (by PDGFR of the cells after PDGF stimulation)) [PDGFR substrate peptide with phosphorylated Tyr751 in the KRas-PDGFR biosensor]	binding [2]: no binding
	binds		DESVDYVPMLDM (phosphotyrosine at Tyr751 (by the added active PDGFR)) [PDGFR substrate peptide with phosphorylated Tyr751 in the purified PDGFR biosensor]	binding [4]: no binding
	no binding		DESVDFVPMLDM [PDGFR substrate peptide with Y751F in the purified PDGFR biosensor]	
		binds	DESVDYVPMLDM (phosphotyrosine at Tyr751 (by PDGFR of the cells after PDGF stimulation)) [PDGFR substrate peptide with phosphorylated Tyr751 in the Lyn-PDGFR biosensor]	binding [6]: no binding
		no binding	DESVDFVPMLDM [PDGFR substrate peptide with Y751F in the Lyn-PDGFR biosensor]	

Results are given in words; binding and its absence hold for the method and conditions named. For part of these data: Binding calls can cover weak binding; strength is not graded here. For part of these data: Binding seen in cells or lysates may run through a third protein.
